One experiment addresses T1, HA-Numb PTB (Drosophila) (UniProt P16554).
T1 sequence: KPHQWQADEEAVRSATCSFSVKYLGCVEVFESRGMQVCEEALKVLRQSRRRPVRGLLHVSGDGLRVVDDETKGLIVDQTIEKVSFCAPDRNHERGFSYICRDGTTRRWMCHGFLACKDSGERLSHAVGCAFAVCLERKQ
Kind of experiment: co-IP; HEK293T cells co-transfected with HA-Numb PTB and Flag-Pon full length or fragments; IP: HA, blot: Flag.

For experiment [1], the target named is T2, GST-Numb PTB (Drosophila) (UniProt P16554).
T2 sequence: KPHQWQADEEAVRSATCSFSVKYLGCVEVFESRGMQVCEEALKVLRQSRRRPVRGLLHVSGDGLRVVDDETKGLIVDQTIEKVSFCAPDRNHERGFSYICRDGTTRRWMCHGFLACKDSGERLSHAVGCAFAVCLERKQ
Kind of experiment: pull-down; GST-Numb PTB or GST as bait; lysates of HEK293T cells expressing Flag-Pon full length or fragments; blot: Flag; only the target purified.

Experiment [2] has as its target T3, Numb full length (HA-Numb and Flag-Numb) (Drosophila) (UniProt P16554).
T3 sequence: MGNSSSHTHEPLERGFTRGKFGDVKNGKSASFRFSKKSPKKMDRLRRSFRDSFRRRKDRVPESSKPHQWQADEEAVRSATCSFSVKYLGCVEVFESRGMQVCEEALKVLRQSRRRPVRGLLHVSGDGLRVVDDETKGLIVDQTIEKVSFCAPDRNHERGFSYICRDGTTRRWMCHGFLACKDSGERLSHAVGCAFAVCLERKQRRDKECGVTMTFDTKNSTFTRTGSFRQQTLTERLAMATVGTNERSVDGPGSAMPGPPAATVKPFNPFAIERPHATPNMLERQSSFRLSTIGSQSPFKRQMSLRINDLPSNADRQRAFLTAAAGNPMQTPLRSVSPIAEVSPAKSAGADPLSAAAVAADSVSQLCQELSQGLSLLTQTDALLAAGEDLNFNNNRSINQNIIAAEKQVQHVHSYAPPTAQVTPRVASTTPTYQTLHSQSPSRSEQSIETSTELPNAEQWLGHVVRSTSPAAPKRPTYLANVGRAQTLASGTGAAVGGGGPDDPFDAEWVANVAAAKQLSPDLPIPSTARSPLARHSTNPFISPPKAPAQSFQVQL
As to the kind of experiment: co-IP; grade 'Binding avidity' of the summary table for full-length Pon and Numb; the table names no assay: full-length Pon and Numb were tested together only by co-IP in HEK293T cells (anti-Flag gel; Fig. 2e, f).

The target of experiment [3] is T2, GST-Numb PTB (Drosophila). As to the kind of experiment: pull-down; GST or GST fusion (2 nmol) on GSH-Sepharose 4B, 6 nmol of the other protein (1:3 molar ratio), 500 μl buffer A (50 mM Tris pH 8.0, 100 mM NaCl, 1 mM EDTA, 1 mM β-ME), 1 h at 4 °C; SDS-PAGE, Coomassie; both purified.
Another experiment has as its target T4, Numb PTB R171A (Drosophila, UniProt P16554-1 65-203, R171A).
T4 sequence: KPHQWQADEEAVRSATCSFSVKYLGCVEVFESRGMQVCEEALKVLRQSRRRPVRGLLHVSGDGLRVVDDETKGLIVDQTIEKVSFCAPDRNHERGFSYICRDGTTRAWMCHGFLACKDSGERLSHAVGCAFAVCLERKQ
As to the kind of experiment: ITC; Pon fragments (~0.5 mM) injected into PTB proteins (~0.05 mM); 20 °C; 50 mM Tris pH 8.0, 100 mM NaCl, 1 mM EDTA, 1 mM β-ME; one-site binding model; both purified. On the technique in general: Isothermal titration calorimetry measures the heat released or taken up as one component is titrated into another.

Experiment [4] deals with T5, Drosophila Numb PTB domain (aa 65-203) (Drosophila) (UniProt P16554).
T5 sequence: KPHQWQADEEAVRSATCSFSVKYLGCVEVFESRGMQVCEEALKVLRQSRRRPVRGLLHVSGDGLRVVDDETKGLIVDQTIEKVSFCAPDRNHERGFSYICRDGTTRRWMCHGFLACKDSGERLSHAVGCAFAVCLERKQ
As to the kind of experiment: AUC; sedimentation velocity, 42,000 rpm, 4 °C, interference detection; Numb PTB with three molar ratios of Pon A2B2; both purified.

Experiment [5] has as its target T2, GST-Numb PTB (Drosophila). As to the kind of experiment: pull-down; GST or GST fusion proteins (2 nmol) on GSH-Sepharose 4B beads, 6 nmol of the indicated protein in 500 μl buffer A (50 mM Tris pH 8.0, 1 mM EDTA, 1 mM β-ME, 100 mM NaCl), 1 h at 4 °C; SDS-PAGE, Coomassie blue; both purified.
For experiment [6], the target named is Flag-Pon full length (Drosophila). Kind of experiment: co-IP; grade 'Binding avidity' of the summary table for full-length Pon and Numb; the table names no assay: full-length Pon and Numb were tested together only by co-IP in HEK293T cells (anti-Flag gel; Fig. 2e, f).
Experiment [7] addresses GST-Pon1-228 (Drosophila). Kind of experiment: pull-down; GST or GST fusion (2 nmol) on GSH-Sepharose 4B, 6 nmol of the other protein (1:3 molar ratio), 500 μl buffer A (50 mM Tris pH 8.0, 100 mM NaCl, 1 mM EDTA, 1 mM β-ME), 1 h at 4 °C; SDS-PAGE, Coomassie; both purified.
In experiment [8] the target is GST-Pon1-228 (Drosophila). As to the kind of experiment: pull-down; GST or GST fusion proteins (2 nmol) on GSH-Sepharose 4B beads, 6 nmol of the indicated protein in 500 μl buffer A (50 mM Tris pH 8.0, 1 mM EDTA, 1 mM β-ME, 100 mM NaCl), 1 h at 4 °C; SDS-PAGE, Coomassie blue; both purified.

These are yes or no findings as the source states them, for the method shown. For part of these data: Binding can be weak; no strength is given. For part of these data: Where a sequence is shown, tags or fusion partners need not be part of it. For part of these data: In cells and extracts the contact can be indirect.

In the case of “Flag-Pon1-116 (Drosophila) (domain or fragment)”, the binding entry (with HA-Numb PTB (Drosophila); in experiment [1]) was “no binding” each time.
As for “Flag-Pon1-228 (Drosophila) (domain or fragment)”, the binding result (in the experiment with HA-Numb PTB (Drosophila); in experiment [1]) was “binds” each time.
On to “Flag-Pon 219-440 (Drosophila) (domain or fragment)”, for which the binding result with HA-Numb PTB (Drosophila) is on record as “no binding”.
Consider “Flag-Pon 435-672 (Drosophila) (domain or fragment)”, for which the binding result with HA-Numb PTB (Drosophila) is “no binding”.
For the molecule Flag-Pon full length (Drosophila), the binding entry (with HA-Numb PTB (Drosophila); in experiment [1]; in [2]) was “binds” throughout.
With “Pon 1-228 (A1B3) (Drosophila) (domain or fragment)”, the binding entry in experiment [3] is given as “binds”.
With Pon 1-670 N139A,Y154E (Drosophila), the binding result in experiment [2] was “binds”.
Same read-out and setting: next, Pon 1-670 N169A,F186E (Drosophila): “binds”.
With “Pon 110-148 (B1A2) (Drosophila) (domain or fragment)”, the binding result in the experiment with Numb PTB R171A is on record as “no binding (tested: > 100 μM)”.
Take “Pon 130-162 (A2B2) (Drosophila) (domain or fragment)”: the binding result in experiment [4] was “binds”; with Numb PTB R171A it was “no binding (tested: > 100 μM)”.
Consider “Pon N-terminal fragment (aa 1–228), A1B1A2B2A3B3 (Drosophila) (domain or fragment)”, for which the binding entry in [5] is reported as “binds”.

B1: Numb 1-556 G192D (protein, UniProt P16554-1 1-556)
chain: MGNSSSHTHEPLERGFTRGKFGDVKNGKSASFRFSKKSPKKMDRLRRSFRDSFRRRKDRVPESSKPHQWQADEEAVRSATCSFSVKYLGCVEVFESRGMQVCEEALKVLRQSRRRPVRGLLHVSGDGLRVVDDETKGLIVDQTIEKVSFCAPDRNHERGFSYICRDGTTRRWMCHGFLACKDSGERLSHAVDCAFAVCLERKQRRDKECGVTMTFDTKNSTFTRTGSFRQQTLTERLAMATVGTNERSVDGPGSAMPGPPAATVKPFNPFAIERPHATPNMLERQSSFRLSTIGSQSPFKRQMSLRINDLPSNADRQRAFLTAAAGNPMQTPLRSVSPIAEVSPAKSAGADPLSAAAVAADSVSQLCQELSQGLSLLTQTDALLAAGEDLNFNNNRSINQNIIAAEKQVQHVHSYAPPTAQVTPRVASTTPTYQTLHSQSPSRSEQSIETSTELPNAEQWLGHVVRSTSPAAPKRPTYLANVGRAQTLASGTGAAVGGGGPDDPFDAEWVANVAAAKQLSPDLPIPSTARSPLARHSTNPFISPPKAPAQSFQVQL
With B1, in experiment [6], the binding result is “binds”.

B2: Numb 1-556 C90W,G192D (protein, UniProt P16554-1 1-556)
chain: MGNSSSHTHEPLERGFTRGKFGDVKNGKSASFRFSKKSPKKMDRLRRSFRDSFRRRKDRVPESSKPHQWQADEEAVRSATCSFSVKYLGWVEVFESRGMQVCEEALKVLRQSRRRPVRGLLHVSGDGLRVVDDETKGLIVDQTIEKVSFCAPDRNHERGFSYICRDGTTRRWMCHGFLACKDSGERLSHAVDCAFAVCLERKQRRDKECGVTMTFDTKNSTFTRTGSFRQQTLTERLAMATVGTNERSVDGPGSAMPGPPAATVKPFNPFAIERPHATPNMLERQSSFRLSTIGSQSPFKRQMSLRINDLPSNADRQRAFLTAAAGNPMQTPLRSVSPIAEVSPAKSAGADPLSAAAVAADSVSQLCQELSQGLSLLTQTDALLAAGEDLNFNNNRSINQNIIAAEKQVQHVHSYAPPTAQVTPRVASTTPTYQTLHSQSPSRSEQSIETSTELPNAEQWLGHVVRSTSPAAPKRPTYLANVGRAQTLASGTGAAVGGGGPDDPFDAEWVANVAAAKQLSPDLPIPSTARSPLARHSTNPFISPPKAPAQSFQVQL
Turning to B2, the binding result in [6] is on record as “no binding”.

B3: Numb 1-556 C90W (protein, UniProt P16554-1 1-556)
chain: MGNSSSHTHEPLERGFTRGKFGDVKNGKSASFRFSKKSPKKMDRLRRSFRDSFRRRKDRVPESSKPHQWQADEEAVRSATCSFSVKYLGWVEVFESRGMQVCEEALKVLRQSRRRPVRGLLHVSGDGLRVVDDETKGLIVDQTIEKVSFCAPDRNHERGFSYICRDGTTRRWMCHGFLACKDSGERLSHAVGCAFAVCLERKQRRDKECGVTMTFDTKNSTFTRTGSFRQQTLTERLAMATVGTNERSVDGPGSAMPGPPAATVKPFNPFAIERPHATPNMLERQSSFRLSTIGSQSPFKRQMSLRINDLPSNADRQRAFLTAAAGNPMQTPLRSVSPIAEVSPAKSAGADPLSAAAVAADSVSQLCQELSQGLSLLTQTDALLAAGEDLNFNNNRSINQNIIAAEKQVQHVHSYAPPTAQVTPRVASTTPTYQTLHSQSPSRSEQSIETSTELPNAEQWLGHVVRSTSPAAPKRPTYLANVGRAQTLASGTGAAVGGGGPDDPFDAEWVANVAAAKQLSPDLPIPSTARSPLARHSTNPFISPPKAPAQSFQVQL
For the molecule B3, the binding result in [6] is reported as “no binding”.

B4: Drosophila Numb PTB domain (aa 65-203) (domain or fragment, UniProt P16554-1 65-203)
chain: KPHQWQADEEAVRSATCSFSVKYLGCVEVFESRGMQVCEEALKVLRQSRRRPVRGLLHVSGDGLRVVDDETKGLIVDQTIEKVSFCAPDRNHERGFSYICRDGTTRRWMCHGFLACKDSGERLSHAVGCAFAVCLERKQ
Regarding B4, the binding entry in [7] is “binds”.

B5: Drosophila Numb PTB domain (aa 65–203) (domain or fragment, UniProt P16554-1 65-203)
chain: KPHQWQADEEAVRSATCSFSVKYLGCVEVFESRGMQVCEEALKVLRQSRRRPVRGLLHVSGDGLRVVDDETKGLIVDQTIEKVSFCAPDRNHERGFSYICRDGTTRRWMCHGFLACKDSGERLSHAVGCAFAVCLERKQ
On to B5, for which the binding result in [8] is given as “binds”.

The record behind these values is publication PMC5821850, “Basal condensation of Numb and Pon complex via phase transition during Drosophila neuroblast asymmetric division” (Nature Communications, 2018).
